Results: publication PMC11208920, “The binding of LARP6 and DNAAF6 in biomolecular condensates influences ciliogenesis of multiciliated cells”

Experiments:
[1] = biological target: Xenopus LARP6-2HA (Xenopus laevis); assay: co-IP; protein extracts of Xenopus embryos (stage 10 or stage 20) expressing tagged proteins; 0.5% Triton X lysate buffer, antibody 1 h at room temperature; xLARP6-2HA immunoprecipitated, Flag-tagged DNAAF6 forms analysed in the precipitate
[2] = biological target: HA-tagged La motif (LAM) of human LARP6 (human); assay: co-IP; HEK293T cells transfected with tagged proteins; HA-tagged LARP6 forms immunoprecipitated from cleared lysate (0.5% NP-40 lysis buffer, 4 °C, protein A/G-agarose), Flag-tagged DNAAF6 analysed in the precipitate

- binding [1]: binds
B1: Flag-tagged human DNAAF6 Q171∗ (expressed in Xenopus embryos) (domain or fragment, UniProt Q9NQM4 1-170)
chain: MESENMDSENMKTENMESQNVDFESVSSVTALEALSKLLNPEEEDDSDYGQTNGLSTIGAMGPGNIGPPQIEELKVIPETSEENNEDIWNSEEIPEGAEYDDMWDVREIPEYEIIFRQQVGTEDIFLGLSKKDSSTGCCSELVAKIKLPNTNPSDIQIDIQETILDLRTP

- binding [1]: binds
B2: Flag-tagged human DNAAF6 WT (expressed in Xenopus embryos) (protein, UniProt Q9NQM4 1-214)
chain: MESENMDSENMKTENMESQNVDFESVSSVTALEALSKLLNPEEEDDSDYGQTNGLSTIGAMGPGNIGPPQIEELKVIPETSEENNEDIWNSEEIPEGAEYDDMWDVREIPEYEIIFRQQVGTEDIFLGLSKKDSSTGCCSELVAKIKLPNTNPSDIQIDIQETILDLRTPQKKLLITLPELVECTSAKAFYIPETETLEITMTMKRELDIANFF

- binding [2]: binds
B3: Flag-tagged human DNAAF6 (expressed in HEK293T cells) (protein, UniProt Q9NQM4 1-214)
chain: B2 chain

No constants are given. Whether binding was seen depends on the method and setting. Binding seen in cells or lysates may run through a third protein. Binding calls can cover weak binding; strength is not graded here. Where a sequence is shown, tags or fusion partners need not be part of it. Each block holds one binder with its values, some of them ahead of it.
